Results reported in the supplement of paper PMC12823440, “Inhibitors supercharge kinase turnover through native proteolytic circuits” (Nature, 2025).
Structures can show the parent of a compound that is named as a salt. The list shows a part of the results. The calls rarely recur for the same compound in another form.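 Kinases were expressed as nanoluciferase fusions in K562 cells and luminescence was read every 4 h between 2 and 18 h as percent of control, DMSO set to 100% and a positive control to 0%. A time point counts as decreased when the signal drops significantly (2 sigma). The hit call is the authors' own, does not follow from the count of time points alone, and its rule is not shown.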

Sequences of proteins named here, by UniProt entry; tags and fusion partners are left off. A change or cut given only in a name is not applied to a line headed by its entry.
UniProt O15530: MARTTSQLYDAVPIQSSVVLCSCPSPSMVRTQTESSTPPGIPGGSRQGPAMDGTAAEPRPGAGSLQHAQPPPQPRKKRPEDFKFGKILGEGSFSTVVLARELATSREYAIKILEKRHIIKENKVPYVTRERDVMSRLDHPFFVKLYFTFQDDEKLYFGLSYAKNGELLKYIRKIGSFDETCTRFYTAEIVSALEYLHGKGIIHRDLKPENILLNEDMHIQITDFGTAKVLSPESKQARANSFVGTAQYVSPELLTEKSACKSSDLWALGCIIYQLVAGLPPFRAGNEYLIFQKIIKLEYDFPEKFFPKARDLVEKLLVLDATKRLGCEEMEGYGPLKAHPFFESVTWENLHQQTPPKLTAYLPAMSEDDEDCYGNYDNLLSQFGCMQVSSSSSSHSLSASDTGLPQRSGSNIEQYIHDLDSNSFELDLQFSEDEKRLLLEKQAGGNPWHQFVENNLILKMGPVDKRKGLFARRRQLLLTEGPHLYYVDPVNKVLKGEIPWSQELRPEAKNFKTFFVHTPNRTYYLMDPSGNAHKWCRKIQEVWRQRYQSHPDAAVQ
UniProt P42356, whole entry, looked up: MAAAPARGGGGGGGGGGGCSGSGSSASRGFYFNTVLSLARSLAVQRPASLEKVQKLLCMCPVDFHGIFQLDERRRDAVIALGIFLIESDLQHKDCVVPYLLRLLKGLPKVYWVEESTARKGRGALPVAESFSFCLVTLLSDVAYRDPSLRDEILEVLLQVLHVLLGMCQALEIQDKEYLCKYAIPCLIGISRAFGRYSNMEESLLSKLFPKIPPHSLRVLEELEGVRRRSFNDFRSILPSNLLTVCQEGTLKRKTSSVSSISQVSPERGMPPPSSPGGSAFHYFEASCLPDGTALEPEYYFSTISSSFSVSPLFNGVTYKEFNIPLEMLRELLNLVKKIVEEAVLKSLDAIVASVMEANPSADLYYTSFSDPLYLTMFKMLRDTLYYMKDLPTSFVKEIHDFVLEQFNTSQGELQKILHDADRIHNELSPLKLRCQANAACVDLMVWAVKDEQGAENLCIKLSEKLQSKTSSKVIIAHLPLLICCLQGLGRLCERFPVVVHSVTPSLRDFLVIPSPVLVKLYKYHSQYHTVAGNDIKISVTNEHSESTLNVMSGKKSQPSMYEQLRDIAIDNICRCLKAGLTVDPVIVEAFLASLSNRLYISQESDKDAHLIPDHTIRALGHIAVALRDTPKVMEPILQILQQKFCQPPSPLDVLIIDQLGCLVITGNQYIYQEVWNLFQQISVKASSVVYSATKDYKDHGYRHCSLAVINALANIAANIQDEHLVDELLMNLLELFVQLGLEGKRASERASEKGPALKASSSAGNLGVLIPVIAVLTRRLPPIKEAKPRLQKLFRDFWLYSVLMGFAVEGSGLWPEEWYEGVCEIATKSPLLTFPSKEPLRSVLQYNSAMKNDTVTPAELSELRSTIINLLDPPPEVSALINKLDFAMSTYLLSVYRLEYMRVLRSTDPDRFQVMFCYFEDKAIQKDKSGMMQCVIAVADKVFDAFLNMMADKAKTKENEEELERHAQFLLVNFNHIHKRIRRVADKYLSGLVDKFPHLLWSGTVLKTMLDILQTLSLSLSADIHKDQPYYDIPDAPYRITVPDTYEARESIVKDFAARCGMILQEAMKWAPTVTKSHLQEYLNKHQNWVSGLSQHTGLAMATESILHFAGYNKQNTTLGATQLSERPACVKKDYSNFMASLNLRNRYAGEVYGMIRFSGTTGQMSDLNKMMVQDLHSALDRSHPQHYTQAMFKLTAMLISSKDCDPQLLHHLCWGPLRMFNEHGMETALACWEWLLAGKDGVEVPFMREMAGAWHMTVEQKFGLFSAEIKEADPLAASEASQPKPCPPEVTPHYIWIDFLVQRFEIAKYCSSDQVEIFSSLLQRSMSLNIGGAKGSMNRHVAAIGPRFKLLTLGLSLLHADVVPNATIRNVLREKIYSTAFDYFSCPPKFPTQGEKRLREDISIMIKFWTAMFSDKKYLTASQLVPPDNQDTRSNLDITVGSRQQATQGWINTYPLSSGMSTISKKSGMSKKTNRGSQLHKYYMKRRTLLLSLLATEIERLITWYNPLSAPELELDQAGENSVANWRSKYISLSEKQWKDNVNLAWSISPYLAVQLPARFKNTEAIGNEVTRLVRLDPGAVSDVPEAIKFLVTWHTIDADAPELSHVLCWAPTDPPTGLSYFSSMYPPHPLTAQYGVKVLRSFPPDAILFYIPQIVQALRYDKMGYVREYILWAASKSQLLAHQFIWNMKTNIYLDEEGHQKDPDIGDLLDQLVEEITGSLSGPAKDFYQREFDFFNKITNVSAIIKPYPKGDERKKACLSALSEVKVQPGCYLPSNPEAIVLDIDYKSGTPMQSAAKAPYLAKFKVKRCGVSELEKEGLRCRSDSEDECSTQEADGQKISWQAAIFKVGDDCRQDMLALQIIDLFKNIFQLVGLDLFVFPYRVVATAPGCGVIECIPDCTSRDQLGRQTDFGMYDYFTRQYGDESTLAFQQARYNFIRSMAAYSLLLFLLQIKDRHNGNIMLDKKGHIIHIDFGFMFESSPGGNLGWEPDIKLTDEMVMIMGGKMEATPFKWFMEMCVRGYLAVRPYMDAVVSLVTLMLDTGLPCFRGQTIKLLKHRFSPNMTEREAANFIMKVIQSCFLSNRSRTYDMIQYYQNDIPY
UniProt Q13131: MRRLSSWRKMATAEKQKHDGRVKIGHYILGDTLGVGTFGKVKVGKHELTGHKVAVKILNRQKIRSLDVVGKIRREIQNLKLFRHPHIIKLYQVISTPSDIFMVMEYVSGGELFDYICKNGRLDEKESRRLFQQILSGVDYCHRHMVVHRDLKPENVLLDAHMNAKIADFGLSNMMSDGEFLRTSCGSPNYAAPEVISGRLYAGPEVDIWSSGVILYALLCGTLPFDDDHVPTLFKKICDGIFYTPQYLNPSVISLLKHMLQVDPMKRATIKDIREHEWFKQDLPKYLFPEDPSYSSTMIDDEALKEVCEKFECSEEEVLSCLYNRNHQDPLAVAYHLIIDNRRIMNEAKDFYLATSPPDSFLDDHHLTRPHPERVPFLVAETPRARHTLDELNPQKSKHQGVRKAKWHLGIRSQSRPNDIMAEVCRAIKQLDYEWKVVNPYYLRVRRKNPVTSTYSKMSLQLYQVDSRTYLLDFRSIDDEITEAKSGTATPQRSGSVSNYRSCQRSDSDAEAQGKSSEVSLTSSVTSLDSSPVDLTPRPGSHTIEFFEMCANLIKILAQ
UniProt Q05397, whole entry, looked up: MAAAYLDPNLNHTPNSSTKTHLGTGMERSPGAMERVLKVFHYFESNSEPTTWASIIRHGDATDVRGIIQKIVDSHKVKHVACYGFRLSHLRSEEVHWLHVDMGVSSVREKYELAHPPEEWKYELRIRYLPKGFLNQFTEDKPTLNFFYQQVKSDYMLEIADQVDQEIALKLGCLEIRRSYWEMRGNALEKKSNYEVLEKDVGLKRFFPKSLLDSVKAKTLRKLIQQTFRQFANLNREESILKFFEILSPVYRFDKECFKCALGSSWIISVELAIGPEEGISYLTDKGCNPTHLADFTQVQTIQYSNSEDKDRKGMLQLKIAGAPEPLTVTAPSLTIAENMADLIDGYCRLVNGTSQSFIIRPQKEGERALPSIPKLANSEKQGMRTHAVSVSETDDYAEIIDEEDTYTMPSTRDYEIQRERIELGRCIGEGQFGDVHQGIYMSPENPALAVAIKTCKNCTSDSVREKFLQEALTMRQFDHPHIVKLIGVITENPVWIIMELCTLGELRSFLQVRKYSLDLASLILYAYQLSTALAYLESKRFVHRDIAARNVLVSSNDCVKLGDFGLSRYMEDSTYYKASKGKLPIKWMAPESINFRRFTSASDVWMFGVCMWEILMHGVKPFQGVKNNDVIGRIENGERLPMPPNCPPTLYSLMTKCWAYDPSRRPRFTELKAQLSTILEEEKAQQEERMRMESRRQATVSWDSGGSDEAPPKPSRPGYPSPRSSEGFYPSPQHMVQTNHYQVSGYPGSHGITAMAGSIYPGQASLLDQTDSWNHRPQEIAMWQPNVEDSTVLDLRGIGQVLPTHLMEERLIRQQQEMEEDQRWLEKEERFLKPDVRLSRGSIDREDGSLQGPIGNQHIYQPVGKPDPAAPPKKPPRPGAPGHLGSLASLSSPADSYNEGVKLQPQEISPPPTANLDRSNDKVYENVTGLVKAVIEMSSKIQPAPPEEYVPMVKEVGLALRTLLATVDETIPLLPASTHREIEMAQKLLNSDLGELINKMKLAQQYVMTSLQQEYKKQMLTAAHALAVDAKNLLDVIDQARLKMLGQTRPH
UniProt Q9BRS2: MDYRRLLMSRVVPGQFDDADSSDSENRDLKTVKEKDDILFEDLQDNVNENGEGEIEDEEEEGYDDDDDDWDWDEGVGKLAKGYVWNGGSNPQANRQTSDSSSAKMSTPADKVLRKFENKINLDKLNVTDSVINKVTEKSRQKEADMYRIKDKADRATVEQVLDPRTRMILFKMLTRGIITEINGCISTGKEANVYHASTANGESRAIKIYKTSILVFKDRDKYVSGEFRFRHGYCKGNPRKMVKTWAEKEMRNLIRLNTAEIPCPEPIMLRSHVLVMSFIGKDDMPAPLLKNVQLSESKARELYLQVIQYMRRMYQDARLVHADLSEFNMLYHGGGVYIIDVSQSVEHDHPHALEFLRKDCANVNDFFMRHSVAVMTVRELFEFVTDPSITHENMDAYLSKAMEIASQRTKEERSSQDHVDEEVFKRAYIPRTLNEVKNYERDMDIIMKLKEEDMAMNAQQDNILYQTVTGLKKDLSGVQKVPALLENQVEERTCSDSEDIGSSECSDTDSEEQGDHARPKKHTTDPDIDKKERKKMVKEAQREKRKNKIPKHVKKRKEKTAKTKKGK
UniProt Q13546: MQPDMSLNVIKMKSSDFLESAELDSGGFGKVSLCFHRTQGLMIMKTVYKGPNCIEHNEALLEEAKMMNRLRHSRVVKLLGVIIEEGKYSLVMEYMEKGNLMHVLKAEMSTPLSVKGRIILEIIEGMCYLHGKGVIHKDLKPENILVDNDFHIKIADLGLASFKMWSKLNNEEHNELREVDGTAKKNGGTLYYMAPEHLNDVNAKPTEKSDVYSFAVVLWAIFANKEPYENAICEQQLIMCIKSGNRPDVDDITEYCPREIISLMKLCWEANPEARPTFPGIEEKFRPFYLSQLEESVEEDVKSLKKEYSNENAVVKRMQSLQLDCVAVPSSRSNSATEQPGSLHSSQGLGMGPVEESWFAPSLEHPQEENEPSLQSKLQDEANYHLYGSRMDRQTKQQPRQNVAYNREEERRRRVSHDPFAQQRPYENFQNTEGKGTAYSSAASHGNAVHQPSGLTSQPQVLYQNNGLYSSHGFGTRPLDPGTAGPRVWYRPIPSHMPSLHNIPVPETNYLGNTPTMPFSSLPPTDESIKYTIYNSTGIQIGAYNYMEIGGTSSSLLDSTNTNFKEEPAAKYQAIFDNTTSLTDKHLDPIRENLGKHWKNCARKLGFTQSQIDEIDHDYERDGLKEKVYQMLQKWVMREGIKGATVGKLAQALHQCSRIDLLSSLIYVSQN
UniProt Q15418, whole entry: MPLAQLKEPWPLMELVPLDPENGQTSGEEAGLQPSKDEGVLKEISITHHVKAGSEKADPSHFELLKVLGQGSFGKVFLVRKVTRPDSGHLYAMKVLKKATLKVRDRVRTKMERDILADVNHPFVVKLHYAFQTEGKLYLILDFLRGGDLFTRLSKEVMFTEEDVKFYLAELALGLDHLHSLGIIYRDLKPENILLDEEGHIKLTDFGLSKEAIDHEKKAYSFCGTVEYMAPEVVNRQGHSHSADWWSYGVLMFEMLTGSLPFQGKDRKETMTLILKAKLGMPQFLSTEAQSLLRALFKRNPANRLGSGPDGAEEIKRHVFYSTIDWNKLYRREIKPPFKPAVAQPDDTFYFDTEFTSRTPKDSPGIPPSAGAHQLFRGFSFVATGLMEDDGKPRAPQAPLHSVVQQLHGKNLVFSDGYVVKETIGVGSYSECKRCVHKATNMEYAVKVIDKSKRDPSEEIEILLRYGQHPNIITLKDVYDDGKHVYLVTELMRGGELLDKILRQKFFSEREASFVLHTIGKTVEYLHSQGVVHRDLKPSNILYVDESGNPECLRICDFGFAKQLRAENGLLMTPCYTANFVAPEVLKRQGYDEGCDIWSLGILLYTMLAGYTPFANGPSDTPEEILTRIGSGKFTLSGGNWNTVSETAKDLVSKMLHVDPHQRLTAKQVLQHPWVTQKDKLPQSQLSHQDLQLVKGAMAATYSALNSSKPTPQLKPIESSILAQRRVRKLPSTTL

How the values were obtained:
Assay in all cases: kinase-Nluc reporter destabilization hit call (1 = scored as downregulated) (binary); higher = compound decreases kinase abundance
Conditions in all cases: K562; 2-18 h
[1] = target: PDPK1 (UniProt O15530)
[2] = target: PIK4CA (UniProt P42356)
[3] = target: PIK4CB (UniProt Q9UBF8)
[4] = target: PLK1 (UniProt P53350)
[5] = target: PRKAA1 (UniProt Q13131)
[6] = target: PRKCA (UniProt P17252)
[7] = target: PTK2 (UniProt Q05397)
[8] = target: PTK2B (UniProt Q14289)
[9] = target: RAF1 (UniProt P04049)
[10] = target: RAF1_S257L (clone: RAF1_mut) (UniProt P04049)
[11] = target: RET (UniProt P07949)
[12] = target: RET_M918T (clone: RET_mut) (UniProt P07949)
[13] = target: RIOK1 (UniProt Q9BRS2)
[14] = target: RIPK1 (UniProt Q13546)
[15] = target: RIPK2 (UniProt O43353)
[16] = target: ROR2 (UniProt Q01974)
[17] = target: RPS6KA1 (UniProt Q15418)
[18] = target: SPHK1 (UniProt Q9NYA1)
[19] = target: SRC (UniProt P12931)
[20] = target: STK24 (UniProt Q9Y6E0)

| Compound | kinase-Nluc reporter destabilization hit call [1] | kinase-Nluc reporter destabilization hit call [2] | kinase-Nluc reporter destabilization hit call [3] | kinase-Nluc reporter destabilization hit call [4] | kinase-Nluc reporter destabilization hit call [5] | kinase-Nluc reporter destabilization hit call [6] | kinase-Nluc reporter destabilization hit call [7] | kinase-Nluc reporter destabilization hit call [8] | kinase-Nluc reporter destabilization hit call [9] | kinase-Nluc reporter destabilization hit call [10] | kinase-Nluc reporter destabilization hit call [11] | kinase-Nluc reporter destabilization hit call [12] | kinase-Nluc reporter destabilization hit call [13] | kinase-Nluc reporter destabilization hit call [14] | kinase-Nluc reporter destabilization hit call [15] | kinase-Nluc reporter destabilization hit call [16] | kinase-Nluc reporter destabilization hit call [17] | kinase-Nluc reporter destabilization hit call [18] | kinase-Nluc reporter destabilization hit call [19] | kinase-Nluc reporter destabilization hit call [20] |
| --- | --- | --- | --- | --- | --- | --- | --- | --- | --- | --- | --- | --- | --- | --- | --- | --- | --- | --- | --- | --- |
| CCCCNc1ncc2c(-c3ccc(CN4CCN(C)CC4)cc3)cn([C@H]3CC[C@H](O)CC3)c2n1 [UNC2025 (hydrochloride)] (2.5 µM) | inactive: 0 | inactive: 0 | inactive: 0 | inactive: 0 | inactive: 0 | inactive: 0 | inactive: 0 | inactive: 0 | inactive: 0 | inactive: 0 | inactive: 0 | inactive: 0 | inactive: 0 | inactive: 0 | inactive: 0 | inactive: 0 | inactive: 0 | inactive: 0 | inactive: 0 | inactive: 0 |
| C1=N/C2=N/c3ccc(OCCN4CCCC4)c(c3)COC/C=C/COCc3cccc(c3)C(=C1)N2 [Pacritinib] (2.5 µM) | inactive: 0 | inactive: 0 | inactive: 0 | inactive: 0 | inactive: 0 | inactive: 0 | inactive: 0 | inactive: 0 | inactive: 0 | inactive: 0 | inactive: 0 | inactive: 0 | inactive: 0 | inactive: 0 | inactive: 0 | inactive: 0 | inactive: 0 | inactive: 0 | inactive: 0 | inactive: 0 |
| CC(C)Cn1cc(C#N)c2cc(Oc3ccc(NC(=O)[C@@H]4CCCN4)cc3)ccc21 (10 µM) | inactive: 0 | inactive: 0 | inactive: 0 | inactive: 0 | inactive: 0 | inactive: 0 | inactive: 0 | inactive: 0 | inactive: 0 | inactive: 0 | inactive: 0 | inactive: 0 | inactive: 0 | inactive: 0 | inactive: 0 | inactive: 0 | inactive: 0 | inactive: 0 | inactive: 0 | inactive: 0 |
| O=c1cc(-c2ccc(O)cc2)oc2cc(O)c([C@@H]3O[C@H](CO)[C@@H](O)[C@H](O)[C@H]3O)c(O)c12 [Isovitexin] (10 µM) | inactive: 0 | inactive: 0 | inactive: 0 | inactive: 0 | inactive: 0 | inactive: 0 | inactive: 0 | inactive: 0 | inactive: 0 | inactive: 0 | inactive: 0 | inactive: 0 | inactive: 0 | inactive: 0 | inactive: 0 | inactive: 0 | inactive: 0 | inactive: 0 | inactive: 0 | inactive: 0 |
| O=C(Nc1cc(Cl)cc(Cl)c1)Nc1cc(Cl)cc(Cl)c1 (10 µM) | inactive: 0 | inactive: 0 | inactive: 0 | inactive: 0 | inactive: 0 | inactive: 0 | inactive: 0 | inactive: 0 | inactive: 0 | inactive: 0 | inactive: 0 | inactive: 0 | inactive: 0 | inactive: 0 | inactive: 0 | inactive: 0 | inactive: 0 | inactive: 0 | inactive: 0 | inactive: 0 |
| Cn1cc(-c2ccc3nnc(Sc4ccc5nn(C)cc5c4)n3n2)cn1 [c-Met inhibitor 1] (10 µM) | inactive: 0 | inactive: 0 | inactive: 0 | inactive: 0 | inactive: 0 | inactive: 0 | inactive: 0 | inactive: 0 | inactive: 0 | inactive: 0 | inactive: 0 | inactive: 0 | inactive: 0 | inactive: 0 | inactive: 0 | inactive: 0 | inactive: 0 | inactive: 0 | inactive: 0 | inactive: 0 |
| CC(C)(C)S(=O)(=O)c1cc2c(Nc3ccc4scnc4c3)ccnc2cc1OCCOCCOCCOCCOCC(=O)Nc1cccc2c1CN(C1CCC(=O)NC1=O)C2=O (stereo not given) [PROTAC RIPK degrader-6] (10 µM) | inactive: 0 | inactive: 0 | inactive: 0 | inactive: 0 | inactive: 0 | inactive: 0 | inactive: 0 | inactive: 0 | inactive: 0 | inactive: 0 | inactive: 0 | inactive: 0 | inactive: 0 | inactive: 0 | active: 1 | inactive: 0 | inactive: 0 | inactive: 0 | inactive: 0 | inactive: 0 |
| COc1ccc(COc2cc3oc(=O)c4cc(C(C)O)ccc4c3cc2OC)cc1 (stereo not given) [Palomid 529] (2.5 µM) | inactive: 0 | inactive: 0 | inactive: 0 | inactive: 0 | inactive: 0 | inactive: 0 | inactive: 0 | inactive: 0 | inactive: 0 | inactive: 0 | inactive: 0 | inactive: 0 | inactive: 0 | inactive: 0 | inactive: 0 | inactive: 0 | inactive: 0 | inactive: 0 | inactive: 0 | inactive: 0 |
| COc1ccc2c(c1)C[C@H](C(=O)Nc1ccc(-c3cn[nH]c3)cc1OCCN(C)C)CO2 [Chroman 1] (10 µM) | inactive: 0 | inactive: 0 | inactive: 0 | inactive: 0 | inactive: 0 | inactive: 0 | inactive: 0 | inactive: 0 | inactive: 0 | inactive: 0 | inactive: 0 | inactive: 0 | inactive: 0 | inactive: 0 | inactive: 0 | inactive: 0 | inactive: 0 | inactive: 0 | inactive: 0 | inactive: 0 |
| COC(=O)c1cc2c(OC(C)C)cc(OC(C)C)cc2[nH]1 (2.5 µM) | inactive: 0 | inactive: 0 | inactive: 0 | inactive: 0 | inactive: 0 | inactive: 0 | inactive: 0 | inactive: 0 | inactive: 0 | inactive: 0 | inactive: 0 | inactive: 0 | inactive: 0 | inactive: 0 | inactive: 0 | inactive: 0 | inactive: 0 | inactive: 0 | inactive: 0 | inactive: 0 |
| Cc1nc(NC(=O)N2CCC[C@H]2C(N)=O)sc1-c1csc(C(C)(C)C)n1 (10 µM) | inactive: 0 | inactive: 0 | inactive: 0 | inactive: 0 | inactive: 0 | inactive: 0 | inactive: 0 | inactive: 0 | inactive: 0 | inactive: 0 | inactive: 0 | inactive: 0 | inactive: 0 | inactive: 0 | inactive: 0 | inactive: 0 | inactive: 0 | inactive: 0 | inactive: 0 | inactive: 0 |
| C=CC(=O)Nc1cccc(Oc2nc(Nc3ccc(N4CCN(C)CC4)cc3)nc3ccsc23)c1 [Olmutinib] (2.5 µM) | inactive: 0 | inactive: 0 | inactive: 0 | inactive: 0 | inactive: 0 | inactive: 0 | inactive: 0 | inactive: 0 | inactive: 0 | inactive: 0 | inactive: 0 | inactive: 0 | inactive: 0 | inactive: 0 | inactive: 0 | inactive: 0 | inactive: 0 | inactive: 0 | inactive: 0 | inactive: 0 |
| O=C(c1ccc(NS(=O)(=O)c2cccc3cccnc23)cc1)N1CCN(CC2CC2)CC1 [Mitapivat] (10 µM) | inactive: 0 | inactive: 0 | inactive: 0 | inactive: 0 | inactive: 0 | inactive: 0 | inactive: 0 | inactive: 0 | inactive: 0 | inactive: 0 | inactive: 0 | inactive: 0 | inactive: 0 | inactive: 0 | inactive: 0 | inactive: 0 | inactive: 0 | inactive: 0 | inactive: 0 | inactive: 0 |
| Cc1cc(=O)[nH]c(=S)[nH]1 [Methylthiouracil] (10 µM) | inactive: 0 | inactive: 0 | inactive: 0 | inactive: 0 | inactive: 0 | inactive: 0 | inactive: 0 | inactive: 0 | inactive: 0 | inactive: 0 | inactive: 0 | inactive: 0 | inactive: 0 | inactive: 0 | inactive: 0 | inactive: 0 | inactive: 0 | inactive: 0 | inactive: 0 | inactive: 0 |
| C=CC(=O)N1CCN(c2nc(OC[C@@H]3CCCN3C)nc3c2CCN(c2cccc4cccc(C)c24)C3)C[C@@H]1CC#N (2.5 µM) | inactive: 0 | inactive: 0 | inactive: 0 | inactive: 0 | inactive: 0 | inactive: 0 | inactive: 0 | inactive: 0 | inactive: 0 | inactive: 0 | inactive: 0 | inactive: 0 | inactive: 0 | inactive: 0 | inactive: 0 | inactive: 0 | inactive: 0 | inactive: 0 | inactive: 0 | inactive: 0 |
| COC(=O)[C@]1(C)CC[C@]2(C(=O)O[C@@H]3O[C@H](CO)[C@@H](O)[C@H](O)[C@H]3O)CC[C@]3(C)C(=CC[C@@H]4[C@@]5(C)C[C@H](O)[C@H](O[C@@H]6OC[C@@H](O[C@@H]7O[C@H](CO)[C@@H](O)[C@H](O)[C@H]7O)[C@H](O)[C@H]6O)[C@@](C)(CO)C5CC[C@]43C)[C@H]2C1 (stereo not given in full) [Esculentoside H] (10 µM) | inactive: 0 | inactive: 0 | inactive: 0 | inactive: 0 | inactive: 0 | inactive: 0 | inactive: 0 | inactive: 0 | inactive: 0 | inactive: 0 | inactive: 0 | inactive: 0 | inactive: 0 | inactive: 0 | inactive: 0 | inactive: 0 | inactive: 0 | inactive: 0 | inactive: 0 | inactive: 0 |
| CNC(=O)c1ccc(-c2cnc3ncc(Cc4ccc5ncccc5c4)n3n2)cc1F [Capmatinib] (10 µM) | inactive: 0 | inactive: 0 | inactive: 0 | inactive: 0 | inactive: 0 | inactive: 0 | inactive: 0 | inactive: 0 | inactive: 0 | inactive: 0 | inactive: 0 | inactive: 0 | inactive: 0 | inactive: 0 | inactive: 0 | inactive: 0 | inactive: 0 | inactive: 0 | inactive: 0 | inactive: 0 |

A different layout for part of the listing above.
Compound,kinase-Nluc reporter destabilization hit call [1],kinase-Nluc reporter destabilization hit call [2],kinase-Nluc reporter destabilization hit call [3],kinase-Nluc reporter destabilization hit call [4],kinase-Nluc reporter destabilization hit call [5],kinase-Nluc reporter destabilization hit call [6],kinase-Nluc reporter destabilization hit call [7],kinase-Nluc reporter destabilization hit call [8],kinase-Nluc reporter destabilization hit call [9],kinase-Nluc reporter destabilization hit call [10],kinase-Nluc reporter destabilization hit call [11],kinase-Nluc reporter destabilization hit call [12],kinase-Nluc reporter destabilization hit call [13],kinase-Nluc reporter destabilization hit call [14],kinase-Nluc reporter destabilization hit call [15],kinase-Nluc reporter destabilization hit call [16],kinase-Nluc reporter destabilization hit call [17],kinase-Nluc reporter destabilization hit call [18],kinase-Nluc reporter destabilization hit call [19],kinase-Nluc reporter destabilization hit call [20]
CCCCNc1ncc2c(-c3ccc(CN4CCN(C)CC4)cc3)cn([C@H]3CC[C@H](O)CC3)c2n1 [UNC2025 (hydrochloride)] (2.5 µM),inactive: 0,inactive: 0,inactive: 0,inactive: 0,inactive: 0,inactive: 0,inactive: 0,inactive: 0,inactive: 0,inactive: 0,inactive: 0,inactive: 0,inactive: 0,inactive: 0,inactive: 0,inactive: 0,inactive: 0,inactive: 0,inactive: 0,inactive: 0
CC(C)(C)S(=O)(=O)c1cc2c(Nc3ccc4scnc4c3)ccnc2cc1OCCOCCOCCOCCOCC(=O)Nc1cccc2c1CN(C1CCC(=O)NC1=O)C2=O (stereo not given) [PROTAC RIPK degrader-6] (10 µM),inactive: 0,inactive: 0,inactive: 0,inactive: 0,inactive: 0,inactive: 0,inactive: 0,inactive: 0,inactive: 0,inactive: 0,inactive: 0,inactive: 0,inactive: 0,inactive: 0,active: 1,inactive: 0,inactive: 0,inactive: 0,inactive: 0,inactive: 0
